Source: article PMC10958042
Results are given in words; binding and its absence hold for the method and conditions named. Binding seen in cells or lysates may run through a third protein. Some results given as binding are weak or reduced against the parent protein; the word gives no strength. Sequences can lack the tags named with a protein.

Key:
Test in all cases: co-IP; LUMIER luminescence-based co-immunoprecipitation: Protein A-ATGL variant and firefly-luciferase partner co-expressed in HEK293T, SDS-free RIPA2 lysate precipitated in IgG-coated plates 2 h at 4 °C, luminescence read; log2 fold change against wild-type ATGL, two experiments in triplicate
[1] = molecular target: T1, Protein A-ATGL R351L (human) (UniProt Q96AD5)
T1 sequence: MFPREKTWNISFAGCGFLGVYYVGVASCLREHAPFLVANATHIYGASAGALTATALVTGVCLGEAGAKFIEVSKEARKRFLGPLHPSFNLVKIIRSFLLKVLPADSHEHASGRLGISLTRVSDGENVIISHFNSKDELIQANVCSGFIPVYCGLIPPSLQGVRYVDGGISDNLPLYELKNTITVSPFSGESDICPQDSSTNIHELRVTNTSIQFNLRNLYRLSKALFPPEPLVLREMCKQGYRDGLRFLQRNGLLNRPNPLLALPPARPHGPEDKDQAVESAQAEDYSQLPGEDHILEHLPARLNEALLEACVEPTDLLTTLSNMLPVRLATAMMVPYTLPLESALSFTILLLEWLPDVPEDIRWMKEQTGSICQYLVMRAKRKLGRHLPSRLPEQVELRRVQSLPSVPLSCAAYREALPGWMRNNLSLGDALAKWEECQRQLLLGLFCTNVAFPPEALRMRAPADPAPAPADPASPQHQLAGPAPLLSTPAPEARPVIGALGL

[2] = molecular target: T2, Protein A-ATGL F348E (human) (UniProt Q96AD5)
T2 sequence: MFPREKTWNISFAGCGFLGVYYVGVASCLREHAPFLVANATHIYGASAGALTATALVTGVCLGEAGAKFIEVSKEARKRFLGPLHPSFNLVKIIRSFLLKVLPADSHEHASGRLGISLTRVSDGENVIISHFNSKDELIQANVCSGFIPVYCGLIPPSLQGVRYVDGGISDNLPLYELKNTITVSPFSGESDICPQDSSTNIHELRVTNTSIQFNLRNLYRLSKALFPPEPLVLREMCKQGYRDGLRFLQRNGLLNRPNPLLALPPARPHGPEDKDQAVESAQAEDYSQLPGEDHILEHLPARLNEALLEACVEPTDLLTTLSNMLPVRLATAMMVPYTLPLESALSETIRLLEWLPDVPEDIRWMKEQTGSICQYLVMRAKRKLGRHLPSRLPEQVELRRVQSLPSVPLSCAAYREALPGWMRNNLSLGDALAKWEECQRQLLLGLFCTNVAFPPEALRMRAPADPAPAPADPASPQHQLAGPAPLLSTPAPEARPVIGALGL

[3] = molecular target: T3, Protein A-ATGL L178A (human) (UniProt Q96AD5)
T3 sequence: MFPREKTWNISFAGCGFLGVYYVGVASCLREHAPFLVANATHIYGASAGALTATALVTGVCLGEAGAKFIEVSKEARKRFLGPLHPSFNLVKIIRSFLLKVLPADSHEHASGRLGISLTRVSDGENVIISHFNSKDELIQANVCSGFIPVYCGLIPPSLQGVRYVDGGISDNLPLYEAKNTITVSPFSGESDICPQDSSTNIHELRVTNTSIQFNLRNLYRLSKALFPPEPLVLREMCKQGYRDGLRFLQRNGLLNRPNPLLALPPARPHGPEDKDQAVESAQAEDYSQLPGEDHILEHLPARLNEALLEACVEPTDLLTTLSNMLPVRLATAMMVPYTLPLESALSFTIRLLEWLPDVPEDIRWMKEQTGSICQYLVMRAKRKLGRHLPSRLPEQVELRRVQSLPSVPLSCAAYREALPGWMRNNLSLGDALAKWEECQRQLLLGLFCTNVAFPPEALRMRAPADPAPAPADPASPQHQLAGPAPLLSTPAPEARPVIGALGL

[4] = molecular target: T4, Protein A-ATGL A104E (human) (UniProt Q96AD5)
T4 sequence: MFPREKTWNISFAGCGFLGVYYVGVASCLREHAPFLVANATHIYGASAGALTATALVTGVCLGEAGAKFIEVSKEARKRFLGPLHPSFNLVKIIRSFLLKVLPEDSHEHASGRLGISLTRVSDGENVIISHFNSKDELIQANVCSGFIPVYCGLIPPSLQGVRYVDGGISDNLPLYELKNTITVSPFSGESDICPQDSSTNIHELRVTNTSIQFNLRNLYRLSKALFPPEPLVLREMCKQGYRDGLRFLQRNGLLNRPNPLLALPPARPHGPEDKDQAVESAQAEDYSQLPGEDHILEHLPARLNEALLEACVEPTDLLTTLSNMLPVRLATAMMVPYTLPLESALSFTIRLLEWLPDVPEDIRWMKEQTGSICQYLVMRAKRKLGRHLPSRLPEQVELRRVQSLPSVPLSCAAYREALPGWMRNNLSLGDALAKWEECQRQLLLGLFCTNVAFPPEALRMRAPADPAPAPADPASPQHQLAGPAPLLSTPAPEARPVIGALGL

Measured: binding

B1: murine Plin5 wild type, firefly-luciferase fusion (protein, UniProt Q8BVZ1 1-463)
chain: MDQRGEDTTLAPHSRMSGDQTAQDPGSSLGELDQQNVVNRVVALPLVKATCTAVSSAYNSAKDRHPLLGSACRLAEHCVCSVTTCALDHAQPLLEHLQPQLATVNDLACRGLDKLEEKLPFLQQPSDMVVTSAKDTVAKSVTGMVDLAQRGRRWSGELRRSMSQAMDMVLGKSEKLVDRFLPMTEAELAVLAAEAEGPEVGTVEEQRQQQGYFVRLGSLSARLRHLAYEHSLGKLRQSKHRTQEMLAQLQETLELIQHMQRGASPSPTFHPPKTQELWGSWSPCLENGRSHSEVELETLALSRSLTLELQNAVDALAGCVRGLPPSAQAKVAEVQRSVDALQATFADAHCLGDVAPTALAEGRGSVARAHACVDEFLDLVLRAMPLPWLVGPFAPILVEQSEPLINLATCVDEVVGDPDPRWAHMDWPAQKRAWEAESADPGGQEAEPPRGQGKHTMMPELDF
binds: [1] | [2] | [3] | [4]

B2: CGI-58 wild type, firefly-luciferase fusion (protein, UniProt Q8WTS1 1-349)
chain: MAAEEEEVDSADTGERSGWLTGWLPTWCPTSISHLKEAEEKMLKCVPCTYKKEPVRISNGNKIWTLKFSHNISNKTPLVLLHGFGGGLGLWALNFGDLCTNRPVYAFDLLGFGRSSRPRFDSDAEEVENQFVESIEEWRCALGLDKMILLGHNLGGFLAAAYSLKYPSRVNHLILVEPWGFPERPDLADQDRPIPVWIRALGAALTPFNPLAGLRIAGPFGLSLVQRLRPDFKRKYSSMFEDDTVTEYIYHCNVQTPSGETAFKNMTIPYGWAKRPMLQRIGKMHPDIPVSVIFGARSCIDGNSGTSIQSLRPHSYVKTIAILGAGHYVYADQPEEFNQKVKEICDTVD
binds: [3] | [4]

B3: G0S2 wild type, firefly-luciferase fusion (protein, UniProt P27469 1-103)
chain: METVQELIPLAKEMMAQKRKGKMVKLYVLGSVLALFGVVLGLMETVCSPFTAARRLRDQEAAVAELQAALERQALQKQALQEKGKQQDTVLGGRALSNRQHAS
binds: [1] | [2] | [3] | [4]

B4: murine Plin1 wild type, firefly-luciferase fusion (protein, UniProt Q8CGN5 1-517)
chain: MSMNKGPTLLDGDLPEQENVLQRVLQLPVVSGTCECFQKTYNSTKEAHPLVASVCNAYEKGVQGASNLAAWSMEPVVRRLSTQFTAANELACRGLDHLEEKIPALQYPPEKIASELKGTISTRLRSARNSISVPIASTSDKVLGATLAGCELALGMAKETAEYAANTRVGRLASGGADLALGSIEKVVEFLLPPDKESAPSSGRQRTQKAPKAKPSLVRRVSTLANTLSRHTMQTTAWALKQGHSLAMWIPGVAPLSSLAQWGASAAMQVVSRRQSEVRVPWLHNLAASQDESHDDQTDTEGEETDDEEEEEESEAEENVLREVTALPNPRGLLGGVVHTVQNTLRNTISAVTWAPAAVLGTVGRILHLTPAQAVSSTKGRAMSLSDALKGVTDNVVDTVVHYVPLPRLSLMEPESEFRDIDNPSAEAERKGSGARPASPESTPRPGQPRGSLRSVRGLSAPSCPGLDDKTEASARPGFLAMPREKPARRVSDSFFRPSVMEPILGRAQYSQLRKKS
binds: [1] | [2]

B5: CIDEC wild type, firefly-luciferase fusion (protein, UniProt Q96AQ7 1-238)
chain: MEYAMKSLSLLYPKSLSRHVSVRTSVVTQQLLSEPSPKAPRARPCRVSTADRSVRKGIMAYSLEDLLLKVRDTLMLADKPFFLVLEEDGTTVETEEYFQALAGDTVFMVLQKGQKWQPPSEQGTRHPLSLSHKPAKKIDVARVTFDLYKLNPQDFIGCLNVKATFYDTYSLSYDLHCCGAKRIMKEAFRWALFSMQATGHVLLGTSCYLQQLLDATEEGQPPKGKASSLIPTCLKILQ
binds: [1] | [2] | [3] | [4]
